# Measurements reported in PubChem BioAssay AID2685 (National Center for Advancing Translational Sciences (NCATS), 2010).
# The list shows a part of the results. Shown are side measurements of this screen, not its main read-out; they come without a call. The list favours compounds with an active or inconclusive main result. Words in brackets tell the shape of the fitted curve; partial curves, single points and poor fits give uncertain potencies.
# Assay: qHTS Assay for Lipid Storage Modulators in Drosophila S3 Cells;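 for cell number change: cells counted by Cell Tracker Red CMTPX staining in the red channel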
# Details: BODIPY lipid droplet fluorescence, 18-24 h; for cell number change: measured here: cell count max response, cells fed with added oleic acid
# Procedure, shortened: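 Drosophila S3 cells got compounds at several concentrations plus oleic acid (400 uM solution). Laser-scanning cytometry with 488 nm excitation read lipid droplets at 500-530 nm and cells at 575-640 nm. Percent activity was relative to 20 uM Triacsin C.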
# [1] = measured here: lipid fluorescence (Fed channel) AC50, cells fed with added oleic acid
# [2] = measured here: cell number channel AC50, cells fed with added oleic acid
smiles,measurement,setting,value
COc1ccc(S(=O)(=O)NC(C)C(=O)N2CCCC2)cc1C (stereo not drawn),cell number change,,-15.4%
CCOC(=O)c1sc(NC(=O)CSc2nc3cccnc3n2C)nc1C,cell number change,,17.9%
same,AC50,[1],"6.51 µM [rising, single point]"
COc1ccc(N2CCN(C(=O)CCc3nnc4ccc(N5CCCC5)nn34)CC2)cc1,cell number change,,15.8%
same,AC50,[2],"6.51 µM [rising, single point]"
same,AC50,[1],"29.1 µM [rising, single point]"
CCOC(=O)c1nnn(CC(=O)N2N=C(c3cc(C)ccc3C)CC2c2ccc(OC)cc2)c1C(=O)OCC (stereo not drawn),cell number change,,16.2%
same,AC50,[1],"29.1 µM [falling, single point]"
COc1ccc(C)cc1-n1nnnc1SC/C(O)=C(\C#N)c1nc2ccccc2[nH]1,AC50,[2],"1.3 µM [rising, full curve]"
same,AC50,[1],"1.84 µM [rising, partial curve]"
Cc1nc2ccccn2c1C(=O)N/N=C/c1ccc(CNC(=O)C(=O)Nc2ccccc2)o1,AC50,[1],"29.1 µM [rising, partial curve]"
Cc1cc(NS(=O)(=O)c2ccc(C(C)C)cc2)no1,cell number change,,-4.7%
same,AC50,[1],"29.1 µM [rising, single point]"
CCOC(=O)c1sc(NC(=O)CCN2CCC(C)CC2)c(C(=O)OCC)c1C,AC50,[2],"6.51 µM [rising, single point]"
same,AC50,[1],"6.51 µM [rising, single point]"
CCOCCCNC(=O)c1oc2ccc3c(c2c1C)C(O)CC(C)(C)O3 (stereo not drawn),cell number change,,-3.55%
CC(C)C[C@H](NC(=O)[C@@H]1Cc2c([nH]c3ccccc23)C2c3ccccc3C(=O)N21)C(=O)N1CCC[C@@H]1C(=O)O (stereo partly drawn),cell number change,,15.9%
same,AC50,[1],"1.3 µM [falling, partial curve]"
O=C(CSc1nnc2ccccn12)N1CCc2ccccc21,cell number change,,-31.3%
same,AC50,[2],"3.26 µM [falling, full curve]"
COc1ccccc1NC(=S)N(Cc1ccc(C)cc1)Cc1ccccn1,cell number change,,-14.1%
same,AC50,[1],"0.82 µM [falling, partial curve, poor fit]"
CC1(C)CC(NC(=O)CSc2ccccc2)CC(C)(C)N1,cell number change,,24.6%
Cc1ccc(NC(=O)CCNS(=O)(=O)c2ccccc2F)cc1S(=O)(=O)N1CCOCC1,AC50,[1],"20.6 µM [falling, single point]"
Cc1ccc(N2CC(C)Cn3c2nc2c3c(=O)n(CC(=O)OCc3ccccc3)c(=O)n2C)cc1C (stereo not drawn),cell number change,,16.8%
same,AC50,[2],"3.66 µM [rising, single point]"
same,AC50,[1],"2.31 µM [rising, partial curve]"
CN1CCN(NC(=O)c2cccs2)CC1,cell number change,,-93.2%
same,AC50,[2],"14.6 µM [falling, partial curve]"
CN(c1ccc(OCC(=O)N2CCC(C(N)=O)CC2)cc1)S(=O)(=O)c1cccs1,cell number change,,16.1%
same,AC50,[2],"1.3 µM [falling, partial curve]"
O=C(CSc1nnc(NC(=O)c2ccccc2F)s1)NCC1CCCO1 (stereo not drawn),cell number change,,-9.07%
same,AC50,[1],"29.1 µM [rising, single point]"
O=C(COC(=O)c1ccc2ncsc2c1)NC(=O)NCc1ccccc1,cell number change,,-33.6%
same,AC50,[2],"1.3 µM [falling, partial curve]"
O=C1NCCCCC1NC1CC(=O)N(c2ccccc2)C1=O (stereo not drawn),cell number change,,-9.53%
same,AC50,[1],"0.116 µM [falling, full curve]"
Cc1ccc(N(CC(=O)Nc2cc(Cl)ccc2Oc2ccccc2)S(C)(=O)=O)c(C)c1,cell number change,,96.3%
same,AC50,[2],"29.1 µM [rising, single point]"
same,AC50,[1],"29.1 µM [rising, single point]"
O=C(CCN1C(=O)c2ccccc2C1=O)Nc1cccc(S(=O)(=O)N2CCCCC2)c1,AC50,[1],"6.51 µM [rising, partial curve]"
Cc1cccc(C(=O)NNC(=S)NC(=O)c2cccs2)c1,cell number change,,-32.2%
same,AC50,[2],"32.6 µM [falling, single point]"
same,AC50,[1],"29.1 µM [falling, single point]"
CCCc1cc(C(=O)Nc2cc(OC)ccc2OC)cs1,cell number change,,45.2%
same,AC50,[2],"12.6 µM [rising, partial curve]"
CCOC(=O)COc1nc(C)c(Br)c(OC)n1,cell number change,,56.8%
same,AC50,[2],"16.4 µM [rising, single point]"
same,AC50,[1],"7.31 µM [rising, partial curve]"
O=C(c1ccc(NS(=O)(=O)c2ccc3[nH]c(=O)[nH]c3c2)cc1)N1CCN(c2ccccc2)CC1,cell number change,,8.08%
same,AC50,[1],"2.06 µM [rising, partial curve, poor fit]"
COc1cc(C(=O)N2CCN(C)C(C)C2)ccc1OC1CCN(C(C)=O)CC1 (stereo not drawn),cell number change,,-21.6%
same,AC50,[1],"1.46 µM [falling, partial curve, poor fit]"
CCn1c(SCC(=O)N2CCc3ccccc32)nnc1-c1c[nH]c2ccccc12,cell number change,,-49%
same,AC50,[2],"5.8 µM [falling, full curve]"
same,AC50,[1],"5.17 µM [falling, full curve]"
CC(C)(C)N1CC(C(=O)O)CC1=O (stereo not drawn),cell number change,,22.3%
same,AC50,[1],"18.4 µM [falling, single point]"
